{"source": "PubChem BioAssay AID493246 (Drosophila RNAi Screening Center, 2011)", "purpose": "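Genes fly cells need to grow and stay alive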 (primary screen)", "system": "Drosophila Kc and S2R+ cells", "reagent": "long dsRNA against Drosophila genes", "measurement": "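Cell number per well after knock-down, printed as raw plate values; calls were based on per-plate z-scores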", "scale": "Kc cell number and S2R+ cell number: higher = more cells remaining", "hit rule": "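Active when the per-plate z-score of cell number is 3 or more in the direction of fewer cells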", "note": "The screen tested about 21,000 reagents; below is an unselected part of those with a known target gene and a result. In the full data, 429 (2%) were called active. 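Values are raw and not normalised between plates; calls rest on per-plate z-scores that were not deposited.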 Unmarked entries are inactive. No sequences are given here. Not stated in the record: the amount of reagent, the time to read-out."}
The first 2 entries, to show the layout:
{"Target gene":"CG31495 (GeneID 261626)","Kc cell number, rep 1":1.19e6,"Kc cell number, rep 2":1.28e6,"S2R+ cell number, rep 1":1.16e6,"S2R+ cell number, rep 2":1.29e6}
{"Target gene":"CG8100 (GeneID 39565)","Kc cell number, rep 1":1.70e6,"Kc cell number, rep 2":1.75e6,"S2R+ cell number, rep 1":1.20e6,"S2R+ cell number, rep 2":1.30e6}

Main list, from the start:
{"Target gene":"CG31495 (GeneID 261626)","Kc cell number, rep 1":1.19e6,"Kc cell number, rep 2":1.28e6,"S2R+ cell number, rep 1":1.16e6,"S2R+ cell number, rep 2":1.29e6}
{"Target gene":"CG8100 (GeneID 39565)","Kc cell number, rep 1":1.70e6,"Kc cell number, rep 2":1.75e6,"S2R+ cell number, rep 1":1.20e6,"S2R+ cell number, rep 2":1.30e6}
{"Target gene":"CG8668 (GeneID 34107)","Kc cell number, rep 1":1.26e6,"Kc cell number, rep 2":1.43e6,"S2R+ cell number, rep 1":4.89e5,"S2R+ cell number, rep 2":6.21e5}
{"Target gene":"CG8460 (GeneID 34115)","Kc cell number, rep 1":1.38e6,"Kc cell number, rep 2":1.34e6,"S2R+ cell number, rep 1":5.85e5,"S2R+ cell number, rep 2":9.08e5}
{"Target gene":"mRpL40 (GeneID 41364)","Kc cell number, rep 1":1.36e6,"Kc cell number, rep 2":1.43e6,"S2R+ cell number, rep 1":1.03e6,"S2R+ cell number, rep 2":1.09e6}
{"Target gene":"chn (GeneID 36678)","Kc cell number, rep 1":9.80e5,"Kc cell number, rep 2":1.23e6,"S2R+ cell number, rep 1":1.24e6,"S2R+ cell number, rep 2":1.27e6}
{"Target gene":"Myd88 (GeneID 35956)","Kc cell number, rep 1":1.31e6,"Kc cell number, rep 2":1.44e6,"S2R+ cell number, rep 1":1.03e6,"S2R+ cell number, rep 2":1.12e6}
{"Target gene":"RpL38 (GeneID 3355144)","Kc cell number, rep 1":"1.13e6 (active)","Kc cell number, rep 2":1.14e6,"S2R+ cell number, rep 1":5.83e5,"S2R+ cell number, rep 2":7.19e5}
{"Target gene":"Obp73a (GeneID 2768955)","Kc cell number, rep 1":1.34e6,"Kc cell number, rep 2":1.50e6,"S2R+ cell number, rep 1":1.33e6,"S2R+ cell number, rep 2":1.43e6}
{"Target gene":"Atg14 (GeneID 43438)","Kc cell number, rep 1":5.24e5,"S2R+ cell number, rep 1":6.39e5}
{"Target gene":"Mp20 (GeneID 36468)","Kc cell number, rep 1":1.46e6,"Kc cell number, rep 2":1.50e6,"S2R+ cell number, rep 1":1.16e6,"S2R+ cell number, rep 2":1.26e6}
{"Target gene":"Tm2 (GeneID 41853)","Kc cell number, rep 1":1.29e6,"Kc cell number, rep 2":1.51e6,"S2R+ cell number, rep 1":1.09e6,"S2R+ cell number, rep 2":1.18e6}
{"Target gene":"Patsas (GeneID 34634)","Kc cell number, rep 1":1.43e6,"Kc cell number, rep 2":1.53e6,"S2R+ cell number, rep 1":1.01e6,"S2R+ cell number, rep 2":1.06e6}
{"Target gene":"hyd (GeneID 41181)","Kc cell number, rep 1":1.81e6,"Kc cell number, rep 2":1.69e6,"S2R+ cell number, rep 1":1.16e6,"S2R+ cell number, rep 2":1.32e6}
{"Target gene":"Send2 (GeneID 34836)","Kc cell number, rep 1":1.60e6,"Kc cell number, rep 2":1.68e6,"S2R+ cell number, rep 1":1.32e6,"S2R+ cell number, rep 2":1.47e6}
{"Target gene":"CG9928 (GeneID 34704)","Kc cell number, rep 1":1.58e6,"Kc cell number, rep 2":1.68e6,"S2R+ cell number, rep 1":1.29e6,"S2R+ cell number, rep 2":1.46e6}
{"Target gene":"CG1998 (GeneID 32300)","Kc cell number, rep 1":1.66e6,"Kc cell number, rep 2":1.79e6,"S2R+ cell number, rep 1":1.10e6,"S2R+ cell number, rep 2":1.22e6}
{"Target gene":"CG8008 (GeneID 35935)","Kc cell number, rep 1":1.15e6,"Kc cell number, rep 2":1.38e6,"S2R+ cell number, rep 1":9.39e5,"S2R+ cell number, rep 2":1.00e6}
{"Target gene":"prel (GeneID 35969)","Kc cell number, rep 1":1.45e6,"Kc cell number, rep 2":1.47e6,"S2R+ cell number, rep 1":1.17e6,"S2R+ cell number, rep 2":1.19e6}
{"Target gene":"Drak (GeneID 32097)","Kc cell number, rep 1":1.41e6,"Kc cell number, rep 2":1.32e6,"S2R+ cell number, rep 1":9.92e5,"S2R+ cell number, rep 2":1.07e6}
{"Target gene":"Art7 (GeneID 37664)","Kc cell number, rep 1":1.62e6,"Kc cell number, rep 2":1.76e6,"S2R+ cell number, rep 1":1.39e6,"S2R+ cell number, rep 2":1.51e6}
